Some results were stated once for a whole list of compounds, not compound by compound.
System: KDR
Assay: Displacement of 125I-VEGF165 binding to CHO-KDR transfected cells by V1 derivatives
Conditions: AlaScan
Excerpt: FIG. 11. […] Experimental conditions are indicated in the legend of FIG. 10.
FIG. 12. […] Experimental conditions are indicated in the legend of FIG. 10.
Experimental conditions are indicated in the legend of FIG. 10.
FIG. 17. […] Experimental conditions are indicated in the legend of FIG. 10.

Substance	activity of alanine-substituted analogues in displacement of 125I-VEGF165
ATWAPPR [A4]	relatively tolerant to alanine substitution
ATWLPAR [A6]	relatively tolerant to alanine substitution
ATALPPR [A3]	relatively tolerant to alanine substitution
AAWLPPR [A2]	relatively tolerant to alanine substitution
ATWLAPR [A5]	relatively tolerant to alanine substitution

— patent US20050019826A1 (priority 2000, published 2005)
